# Measurements reported in PubChem BioAssay AID1259405 (NCATS, 2018).
# Purpose: 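Silenced genes that increase secreted GFP made by CHO cells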 (primary screen)
# System: Chinese hamster CHO-K1 ovary cells with stable secreted eGFP expression
# Knock-down reagent: single siRNA against mouse genes, 0.8 pmol siRNA per well (2 µl of 400 nM stock)
# Timing: 3 days
# Read-out: 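Percent of the per-plate non-targeting control median for intracellular GFP per well by laser scanning cytometry and for cell viability by ATP luminescence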
# Direction: GFP, % of control: higher = more GFP per well, higher productivity; viability (ATP), % of control: higher = more viable cells (more ATP)
# Rule for the call: 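a knock-down is called active if GFP reaches 120% or more of non-targeting control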
# This is one part, drawn at random, of about 50,000 reagents tested. About 4,000 of them (8%) count as active. 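Mouse siRNA library applied to hamster cells; one well for each siRNA.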 Unmarked entries are inactive. Reagents against one gene are numbered here. No sequences are given here.
gene symbol,reagent no.,"GFP, % of control","viability (ATP), % of control"
Gtpbp8 (GeneID 66067),1,93.7,70.8
Gtpbp8 (GeneID 66067),2,66.5,64.3
Gtpbp8 (GeneID 66067),3,85,45.5
Or5h19 (GeneID 258319),1,83.6,99.8
Or5h19 (GeneID 258319),2,71.7,74
Or5h19 (GeneID 258319),3,52.8,91.9
Prkra (GeneID 23992),1,72.2,124
Prkra (GeneID 23992),2,95.9,85.4
Adipoq (GeneID 11450),1,67.8,88.1
Adipoq (GeneID 11450),2,80.9,94.6
Mycn (GeneID 18109),1,60.1,63.7
Mycn (GeneID 18109),2,77.9,73.6
Mycn (GeneID 18109),3,78.4,101
Cnot9 (GeneID 58184),1,72.8,79
Cnot9 (GeneID 58184),2,76.6,75.3
Cnot9 (GeneID 58184),3,76.9,95.4
Sertad3 (GeneID 170742),1,194 (active),88.4
Sertad3 (GeneID 170742),2,59.2,55.2
Sertad3 (GeneID 170742),3,74.2,89.5
Sertad3 (GeneID 170742),4,74.2,89.5
Sertad3 (GeneID 170742),5,117,83.1
Sertad3 (GeneID 170742),6,128 (active),84.4
Dtwd1 (GeneID 69185),1,95.5,97.9
Dtwd1 (GeneID 69185),2,94.3,90.5
Dtwd1 (GeneID 69185),3,47.2,70.5
Vwa5a (GeneID 67776),1,50.9,76.6
Vwa5a (GeneID 67776),2,136 (active),101
Zfp637 (GeneID 232337),1,78.8,69.3
Zfp637 (GeneID 232337),2,63.8,47.9
Zfp637 (GeneID 232337),3,138 (active),83.5
Sptbn2 (GeneID 20743),1,73.3,72.6
Sptbn2 (GeneID 20743),2,76.7,76.6
Sptbn2 (GeneID 20743),3,83.2,82.5
Surf6 (GeneID 20935),1,121 (active),96.5
Surf6 (GeneID 20935),2,59.1,78.3

Individual results from the entries so far.
Value of Gtpbp8 (GeneID 66067) #1 in “viability (ATP), % of control”: 70.8
Entry for Zfp637 (GeneID 232337) #3 under “viability (ATP), % of control”: 83.5 (active)
Entry for Mycn (GeneID 18109) #2 under “GFP, % of control”: 77.9
Mycn (GeneID 18109) #3, GFP, % of control = 78.4
Mycn (GeneID 18109) #1, GFP, % of control → 60.1
